These are yes or no findings as the source states them, for the method shown. For part of these data: Tags and fused reporters may be left off the sequences shown.
How the values were obtained:
[1] = target: APR^GLP2 hexapeptide DFINWL (aggregation-prone region of glucagon-like peptide 2) (human); assay: condition: only pH shifted from acidic to a neutral (physiological) value; far-UV CD + other: FTIR; matured amyloid samples (acidic pH, FTIR samples 24 h at pH 4.2, 37 °C) reset to neutral pH (7.2); reversibility measurement; both purified
[2] = target: APR^GLP2 hexapeptide DFINWL (aggregation-prone region of glucagon-like peptide 2) (human); assay: far-UV CD; 0.15–0.20 mM peptide in distilled water, physiological pH and above (above pH 5), stirred 500–600 rpm at 37 °C, measured at 25 °C for up to weeks; both purified
[3] = target: APR^Tc5b hexapeptide LYIQWL (synthetic exendin-like APR of the de novo designed Tc5b and E19); assay: far-UV CD; pH scan of APR^Tc5b, pH below 2 and above 11; fibrils also brought to extreme pH; both purified
[4] = target: APR^GLP1 hexapeptide EFIAWL (aggregation-prone region of glucagon-like peptide 1) (human); assay: condition: only pH shifted from acidic to a neutral (physiological) value; far-UV CD + other: FTIR; matured amyloid samples (acidic pH, FTIR samples 24 h at pH 4.2, 37 °C) reset to neutral pH (7.2); reversibility measurement; both purified
[5] = target: APR^GLP1 hexapeptide EFIAWL (aggregation-prone region of glucagon-like peptide 1) (human); assay: far-UV CD; 0.15–0.20 mM peptide in distilled water, physiological pH and above (above pH 5), stirred 500–600 rpm at 37 °C, measured at 25 °C for up to weeks; both purified
[6] = target: Ac-EFIAWL (N-terminally acetylated APR^GLP1) (human); assay: as above

B1: APR^GLP2 hexapeptide DFINWL (aggregation-prone region of glucagon-like peptide 2) (peptide)
peptide: DFINWL
notes: aggregation-prone hexapeptide segment of human glucagon-like peptide 2 (GLP-2); free termini (no terminal protection); also called DFINWL (GLP-2); source: synthetic peptide (flow solid-phase synthesis, Fmoc/tBu; RP-HPLC purified)
binding [1]: no binding | binding [2]: no binding (condition: above pH = 5)

B2: APR^Tc5b hexapeptide LYIQWL (synthetic exendin-like APR of the de novo designed Tc5b and E19) (peptide)
peptide: LYIQWL
notes: hexapeptide segment of the de novo designed Trp-cage exendin derivatives Tc5b and E19; non-natural, no acidic side chain; also called LYIQWL (Tc5b, E19); source: synthetic peptide (flow solid-phase synthesis, Fmoc/tBu; RP-HPLC purified)
binding [3]: no binding (condition: pH below 2 and above 11)

B3: APR^GLP1 hexapeptide EFIAWL (aggregation-prone region of glucagon-like peptide 1) (peptide)
peptide: EFIAWL
notes: aggregation-prone hexapeptide segment of human glucagon-like peptide 1 (GLP-1); source: synthetic peptide (flow solid-phase synthesis, Fmoc/tBu; RP-HPLC purified)
binding [4]: no binding | binding [5]: no binding (condition: above pH = 5)

B4: Ac-EFIAWL (N-terminally acetylated APR^GLP1) (peptide)
peptide: EFIAWL
modifications: N-terminal acetyl
binding [6]: no binding (condition: above pH = 5)
